Structures can show the parent of a compound that is named as a salt. The list shows a part of the results. The calls rarely recur for the same compound in another form.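 Kinases, fused to nanoluciferase, were expressed in K562 cells; luminescence was measured every 4 h from 2 to 18 h as percent of control (DMSO = 100%, positive control = 0%). A time point is decreased if signal falls significantly (2 sigma). Hits were called by the authors by a rule that is not shown; the count of time points alone does not decide it.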
How the values were obtained:
Assay in all cases: kinase-Nluc reporter destabilization hit call (1 = scored as downregulated) (binary); higher = compound decreases kinase abundance
Conditions in all cases: K562; 2-18 h
CDK7 = CDK7 (UniProt P50613)
CDK9 = CDK9 (UniProt P50750)
CHEK2 = CHEK2 (UniProt O96017)
CSF1R = CSF1R (UniProt P07333)
CSK = CSK (UniProt P41240)
CSNK1A1 = CSNK1A1 (UniProt P48729)
CSNK1D = CSNK1D (UniProt P48730)
DDR1 = DDR1 (UniProt Q08345)
DYRK1B = DYRK1B (UniProt Q9Y463)
DYRK2 = DYRK2 (UniProt Q92630)

Chains of the proteins cited; added tags and fusions are not shown. Lines headed by an entry give the natural chain unless they say otherwise; changes in a name come on top.
UniProt P50613: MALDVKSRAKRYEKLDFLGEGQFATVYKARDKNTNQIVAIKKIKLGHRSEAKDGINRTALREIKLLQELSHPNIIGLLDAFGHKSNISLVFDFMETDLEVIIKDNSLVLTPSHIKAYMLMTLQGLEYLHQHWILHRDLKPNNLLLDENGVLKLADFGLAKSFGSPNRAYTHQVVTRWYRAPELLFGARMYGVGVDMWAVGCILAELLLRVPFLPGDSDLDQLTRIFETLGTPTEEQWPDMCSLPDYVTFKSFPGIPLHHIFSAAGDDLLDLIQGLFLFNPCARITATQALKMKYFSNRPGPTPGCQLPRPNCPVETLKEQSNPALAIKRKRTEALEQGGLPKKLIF
UniProt P50750, whole entry: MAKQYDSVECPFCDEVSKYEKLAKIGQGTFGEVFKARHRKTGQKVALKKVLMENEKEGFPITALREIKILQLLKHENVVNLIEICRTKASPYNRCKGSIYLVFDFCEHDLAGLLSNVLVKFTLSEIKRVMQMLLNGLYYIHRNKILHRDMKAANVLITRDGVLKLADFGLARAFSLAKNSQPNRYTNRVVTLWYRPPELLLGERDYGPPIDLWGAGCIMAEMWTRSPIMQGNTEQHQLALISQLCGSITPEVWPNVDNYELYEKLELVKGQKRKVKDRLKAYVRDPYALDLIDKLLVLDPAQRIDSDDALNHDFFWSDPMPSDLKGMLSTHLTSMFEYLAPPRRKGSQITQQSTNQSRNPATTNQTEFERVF
UniProt O96017, whole entry: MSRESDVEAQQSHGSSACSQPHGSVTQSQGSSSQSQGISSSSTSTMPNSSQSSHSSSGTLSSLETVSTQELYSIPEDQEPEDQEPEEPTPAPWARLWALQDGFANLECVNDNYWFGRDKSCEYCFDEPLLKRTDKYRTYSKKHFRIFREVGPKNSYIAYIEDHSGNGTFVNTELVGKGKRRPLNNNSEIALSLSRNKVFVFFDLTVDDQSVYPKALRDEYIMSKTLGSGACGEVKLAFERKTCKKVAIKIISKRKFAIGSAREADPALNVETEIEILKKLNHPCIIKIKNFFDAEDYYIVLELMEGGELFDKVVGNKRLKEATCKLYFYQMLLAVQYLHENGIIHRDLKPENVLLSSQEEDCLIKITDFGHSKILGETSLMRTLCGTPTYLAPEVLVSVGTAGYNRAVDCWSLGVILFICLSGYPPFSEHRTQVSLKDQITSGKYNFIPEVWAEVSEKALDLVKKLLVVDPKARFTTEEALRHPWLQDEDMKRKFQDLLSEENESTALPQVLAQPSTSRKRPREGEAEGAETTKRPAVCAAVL
UniProt P07333, whole entry: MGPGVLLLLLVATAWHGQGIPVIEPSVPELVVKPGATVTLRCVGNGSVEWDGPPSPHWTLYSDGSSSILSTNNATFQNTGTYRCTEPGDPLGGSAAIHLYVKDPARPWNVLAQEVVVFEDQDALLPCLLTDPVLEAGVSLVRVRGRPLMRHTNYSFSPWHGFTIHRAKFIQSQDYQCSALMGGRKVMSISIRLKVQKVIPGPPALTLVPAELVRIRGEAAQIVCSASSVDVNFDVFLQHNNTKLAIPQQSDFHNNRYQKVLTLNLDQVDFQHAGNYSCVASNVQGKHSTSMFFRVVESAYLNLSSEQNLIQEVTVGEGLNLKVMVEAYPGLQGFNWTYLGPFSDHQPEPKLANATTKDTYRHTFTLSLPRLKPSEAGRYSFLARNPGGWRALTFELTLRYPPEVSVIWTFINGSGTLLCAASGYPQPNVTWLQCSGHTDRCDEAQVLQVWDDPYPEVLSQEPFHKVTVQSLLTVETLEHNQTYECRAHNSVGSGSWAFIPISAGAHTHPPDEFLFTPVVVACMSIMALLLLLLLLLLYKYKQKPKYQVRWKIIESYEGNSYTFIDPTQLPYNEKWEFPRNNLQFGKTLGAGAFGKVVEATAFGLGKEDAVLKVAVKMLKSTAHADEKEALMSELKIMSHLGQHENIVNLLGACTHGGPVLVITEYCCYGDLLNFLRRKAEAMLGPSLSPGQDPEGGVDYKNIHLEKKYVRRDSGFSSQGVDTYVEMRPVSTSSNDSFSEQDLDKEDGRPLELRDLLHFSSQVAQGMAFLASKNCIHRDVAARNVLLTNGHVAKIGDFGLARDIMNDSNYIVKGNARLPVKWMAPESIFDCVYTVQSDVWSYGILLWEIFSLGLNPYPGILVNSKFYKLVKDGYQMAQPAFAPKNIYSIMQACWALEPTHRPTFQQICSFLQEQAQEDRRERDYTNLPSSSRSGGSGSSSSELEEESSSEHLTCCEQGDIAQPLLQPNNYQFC
UniProt P41240: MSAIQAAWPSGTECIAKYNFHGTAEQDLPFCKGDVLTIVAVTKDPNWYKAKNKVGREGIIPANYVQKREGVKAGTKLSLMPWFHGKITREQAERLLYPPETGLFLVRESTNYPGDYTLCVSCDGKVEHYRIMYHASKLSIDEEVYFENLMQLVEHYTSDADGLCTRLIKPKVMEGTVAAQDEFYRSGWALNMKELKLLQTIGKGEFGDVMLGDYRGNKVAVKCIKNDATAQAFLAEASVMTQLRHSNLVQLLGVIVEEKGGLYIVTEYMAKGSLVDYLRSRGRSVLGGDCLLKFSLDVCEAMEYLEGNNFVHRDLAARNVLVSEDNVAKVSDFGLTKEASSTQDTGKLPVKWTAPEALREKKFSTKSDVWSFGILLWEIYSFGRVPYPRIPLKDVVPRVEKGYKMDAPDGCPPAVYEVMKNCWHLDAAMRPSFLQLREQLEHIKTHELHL
UniProt P48729: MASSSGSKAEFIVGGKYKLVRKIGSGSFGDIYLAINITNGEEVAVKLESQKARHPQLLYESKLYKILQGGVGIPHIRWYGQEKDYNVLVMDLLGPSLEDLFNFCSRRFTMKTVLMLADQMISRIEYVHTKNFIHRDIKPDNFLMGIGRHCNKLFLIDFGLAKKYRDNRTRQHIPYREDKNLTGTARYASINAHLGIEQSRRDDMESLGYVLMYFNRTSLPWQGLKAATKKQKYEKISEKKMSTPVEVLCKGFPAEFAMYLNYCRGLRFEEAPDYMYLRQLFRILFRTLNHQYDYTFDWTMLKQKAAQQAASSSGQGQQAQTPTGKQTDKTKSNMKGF
UniProt P48730: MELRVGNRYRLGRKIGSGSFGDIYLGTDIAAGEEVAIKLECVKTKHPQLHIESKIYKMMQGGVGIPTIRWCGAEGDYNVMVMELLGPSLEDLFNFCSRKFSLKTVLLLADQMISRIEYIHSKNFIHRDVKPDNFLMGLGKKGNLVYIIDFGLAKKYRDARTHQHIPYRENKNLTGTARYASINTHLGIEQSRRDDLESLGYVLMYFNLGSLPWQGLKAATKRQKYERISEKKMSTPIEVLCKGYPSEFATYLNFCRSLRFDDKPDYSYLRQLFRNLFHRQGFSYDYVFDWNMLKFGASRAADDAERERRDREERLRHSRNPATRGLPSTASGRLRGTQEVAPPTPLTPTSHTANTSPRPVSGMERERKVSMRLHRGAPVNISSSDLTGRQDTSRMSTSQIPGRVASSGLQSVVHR
UniProt Q08345: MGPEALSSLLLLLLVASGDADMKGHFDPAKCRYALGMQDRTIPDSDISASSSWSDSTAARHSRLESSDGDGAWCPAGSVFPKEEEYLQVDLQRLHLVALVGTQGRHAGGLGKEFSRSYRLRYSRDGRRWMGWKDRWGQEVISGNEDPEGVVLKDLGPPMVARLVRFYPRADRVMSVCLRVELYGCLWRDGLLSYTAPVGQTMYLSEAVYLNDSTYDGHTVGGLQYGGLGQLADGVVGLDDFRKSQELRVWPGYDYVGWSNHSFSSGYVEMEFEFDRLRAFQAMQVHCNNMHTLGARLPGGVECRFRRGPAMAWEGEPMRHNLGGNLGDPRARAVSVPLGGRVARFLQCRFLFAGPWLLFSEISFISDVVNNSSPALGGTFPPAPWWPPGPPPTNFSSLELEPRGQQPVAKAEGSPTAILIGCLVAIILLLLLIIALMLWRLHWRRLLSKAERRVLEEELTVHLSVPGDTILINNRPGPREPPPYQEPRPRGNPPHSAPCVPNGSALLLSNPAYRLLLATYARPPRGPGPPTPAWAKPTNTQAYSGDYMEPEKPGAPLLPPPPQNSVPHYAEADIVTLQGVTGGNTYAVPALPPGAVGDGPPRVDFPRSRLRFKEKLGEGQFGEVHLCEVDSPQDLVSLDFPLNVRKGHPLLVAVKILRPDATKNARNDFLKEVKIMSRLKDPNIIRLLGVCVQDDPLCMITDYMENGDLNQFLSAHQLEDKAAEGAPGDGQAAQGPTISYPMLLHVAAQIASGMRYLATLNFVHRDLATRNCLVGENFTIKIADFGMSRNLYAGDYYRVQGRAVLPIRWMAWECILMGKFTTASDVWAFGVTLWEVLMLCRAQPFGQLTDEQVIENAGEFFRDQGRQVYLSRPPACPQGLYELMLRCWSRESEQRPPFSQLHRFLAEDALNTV
UniProt Q9Y463, whole entry, looked up: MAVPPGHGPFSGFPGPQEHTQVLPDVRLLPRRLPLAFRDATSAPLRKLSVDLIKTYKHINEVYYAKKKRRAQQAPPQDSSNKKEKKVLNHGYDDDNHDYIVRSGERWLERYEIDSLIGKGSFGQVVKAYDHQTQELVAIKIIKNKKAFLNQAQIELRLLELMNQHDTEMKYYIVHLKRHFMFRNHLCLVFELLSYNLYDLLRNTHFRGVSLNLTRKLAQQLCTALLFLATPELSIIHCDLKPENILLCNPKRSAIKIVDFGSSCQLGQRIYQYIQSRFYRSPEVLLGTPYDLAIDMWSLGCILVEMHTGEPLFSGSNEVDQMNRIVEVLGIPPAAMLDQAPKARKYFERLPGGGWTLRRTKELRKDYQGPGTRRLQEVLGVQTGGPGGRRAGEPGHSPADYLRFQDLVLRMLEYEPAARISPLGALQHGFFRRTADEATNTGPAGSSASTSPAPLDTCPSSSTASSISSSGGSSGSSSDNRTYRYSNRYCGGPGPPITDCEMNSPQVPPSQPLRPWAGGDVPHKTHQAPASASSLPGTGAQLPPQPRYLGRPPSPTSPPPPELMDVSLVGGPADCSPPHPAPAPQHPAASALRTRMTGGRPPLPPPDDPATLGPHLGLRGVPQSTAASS
UniProt Q92630: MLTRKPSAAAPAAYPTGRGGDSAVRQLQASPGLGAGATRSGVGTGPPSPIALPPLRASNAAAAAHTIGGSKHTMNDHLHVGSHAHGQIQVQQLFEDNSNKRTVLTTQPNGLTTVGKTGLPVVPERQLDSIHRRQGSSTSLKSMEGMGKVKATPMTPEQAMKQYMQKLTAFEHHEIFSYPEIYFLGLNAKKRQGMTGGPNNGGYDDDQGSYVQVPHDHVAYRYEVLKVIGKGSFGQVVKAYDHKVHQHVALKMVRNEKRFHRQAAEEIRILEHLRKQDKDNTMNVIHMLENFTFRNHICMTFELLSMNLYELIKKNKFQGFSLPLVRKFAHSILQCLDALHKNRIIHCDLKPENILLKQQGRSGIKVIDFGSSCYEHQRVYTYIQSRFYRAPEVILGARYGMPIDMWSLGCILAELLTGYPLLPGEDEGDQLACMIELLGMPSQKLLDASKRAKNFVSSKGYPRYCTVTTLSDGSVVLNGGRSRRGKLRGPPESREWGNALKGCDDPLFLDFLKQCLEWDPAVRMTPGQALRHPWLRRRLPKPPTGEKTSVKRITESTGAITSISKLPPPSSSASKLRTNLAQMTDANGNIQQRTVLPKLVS

Measured: kinase-Nluc reporter destabilization hit call

CNS(=O)(=O)Nc1nccc(Cc2c(C)c3ccc(Oc4ncccn4)cc3oc2=O)c1F (10 µM)
inactive: CDK7 = 0 | CDK9 = 0 | CHEK2 = 0 | CSF1R 0 | CSK 0 | CSNK1A1 = 0 | CSNK1D 0 | DDR1 = 0 | DYRK1B 0 | DYRK2 = 0

CC(C)n1cnnc1-c1cccc(NC(=O)c2cc3ccc(F)cc3[nH]2)n1 (2.5 µM)
inactive: CDK7 = 0 | CDK9 = 0 | CHEK2 = 0 | CSF1R 0 | CSK 0 | CSNK1A1 = 0 | CSNK1D 0 | DDR1 = 0 | DYRK1B 0 | DYRK2 = 0

COC(=O)/C=C/c1ccc(O)c(OC)c1 [Ferulic acid methyl ester] (10 µM)
inactive: CDK7 = 0 | CDK9 = 0 | CHEK2 = 0 | CSF1R 0 | CSK 0 | CSNK1A1 = 0 | CSNK1D 0 | DDR1 = 0 | DYRK1B 0 | DYRK2 = 0

O=C(c1ccc(NS(=O)(=O)c2cccc3cccnc23)cc1)N1CCN(CC2CC2)CC1 [Mitapivat] (10 µM)
inactive: CDK7 = 0 | CDK9 = 0 | CHEK2 = 0 | CSF1R 0 | CSK 0 | CSNK1A1 = 0 | CSNK1D 0 | DDR1 = 0 | DYRK1B 0 | DYRK2 = 0

CN(C/C=C/C(=O)Nc1ccc(C(=O)Nc2cccc(Nc3ncc(Cl)c(-c4c[nH]c5ccccc45)n3)c2)cc1)CCCNC(=O)NCCOCCOCCOCCNC(=O)CCCC[C@@H]1SC[C@@H]2NC(=O)N[C@@H]21 (2.5 µM)
inactive: CDK7 = 0 | CDK9 = 0 | CHEK2 = 0 | CSF1R 0 | CSK 0 | CSNK1A1 = 0 | CSNK1D 0 | DDR1 = 0 | DYRK1B 0 | DYRK2 = 0

Cc1cccc(Cn2nc(C)c3c(NC(=O)c4csc5c(N)ncnc45)cccc32)n1 (10 µM)
inactive: CDK7 = 0 | CDK9 = 0 | CHEK2 = 0 | CSF1R 0 | CSK 0 | CSNK1A1 = 0 | CSNK1D 0 | DDR1 = 0 | DYRK1B 0 | DYRK2 = 0

CN(C)C(=O)c1cc2cnc(Nc3ccc(NC(=O)C4(C(=O)Nc5ccc(F)cc5)CC4)cc3)nc2n1C1CCCC1 (2 µM)
inactive: CDK7 = 0 | CDK9 = 0 | CHEK2 = 0 | CSF1R 0 | CSK 0 | CSNK1A1 = 0 | CSNK1D 0 | DDR1 = 0 | DYRK1B 0 | DYRK2 = 0

O=C(Nc1ncc(SCCN2CCCC2)s1)[C@]1(c2ccc(S(=O)(=O)C3CC3)cc2)C[C@H]1C1CCCCC1 [Globalagliatin] (2.5 µM)
inactive: CDK7 = 0 | CDK9 = 0 | CHEK2 = 0 | CSF1R 0 | CSK 0 | CSNK1A1 = 0 | CSNK1D 0 | DDR1 = 0 | DYRK1B 0 | DYRK2 = 0

CC(C)(C)c1ccc(C(=O)Nc2cn3cc(-n4ccnc4)ccc3n2)cc1 (10 µM)
inactive: CDK7 = 0 | CDK9 = 0 | CHEK2 = 0 | CSF1R 0 | CSK 0 | CSNK1A1 = 0 | CSNK1D 0 | DDR1 = 0 | DYRK1B 0 | DYRK2 = 0

O=c1cc(-c2ccc(O)cc2)oc2cc(O)c([C@@H]3O[C@H](CO)[C@@H](O)[C@H](O)[C@H]3O)c(O)c12 [Isovitexin] (10 µM)
inactive: CDK7 = 0 | CDK9 = 0 | CHEK2 = 0 | CSF1R 0 | CSK 0 | CSNK1A1 = 0 | CSNK1D 0 | DDR1 = 0 | DYRK1B 0 | DYRK2 = 0

C=C[C@H]1[C@H](O[C@@H]2O[C@H](CO)[C@@H](O)[C@H](O)[C@H]2O)OC=C(C(=O)OC)[C@H]1CCOC(=O)c1cc(O)c(O)c(O)c1 [Cornuside] (10 µM)
inactive: CDK7 = 0 | CDK9 = 0 | CHEK2 = 0 | CSF1R 0 | CSK 0 | CSNK1A1 = 0 | CSNK1D 0 | DDR1 = 0 | DYRK1B 0 | DYRK2 = 0

COc1ccc(S(=O)(=O)N(CCO)c2ccccc2CN(C)CC=Cc2ccc(Cl)cc2)cc1 (2.5 µM)
inactive: CDK7 = 0 | CDK9 = 0 | CHEK2 = 0 | CSF1R 0 | CSK 0 | CSNK1A1 = 0 | CSNK1D 0 | DDR1 = 0 | DYRK1B 0 | DYRK2 = 0

O=c1[nH]nc(Sc2ncc([N+](=O)[O-])s2)n1-c1ccc2c(c1)OCCO2 (2.5 µM)
inactive: CDK7 = 0 | CDK9 = 0 | CHEK2 = 0 | CSF1R 0 | CSK 0 | CSNK1A1 = 0 | CSNK1D 0 | DDR1 = 0 | DYRK1B 0 | DYRK2 = 0

CCOc1cc(C(=O)N2CCC(N3CCN(C)CC3)CC2)ccc1Nc1ncc2c(n1)N(S(C)(=O)=O)c1ccccc1C(=O)N2C (10 µM)
inactive: CDK7 = 0 | CDK9 = 0 | CHEK2 = 0 | CSF1R 0 | CSK 0 | CSNK1A1 = 0 | CSNK1D 0 | DDR1 = 0 | DYRK1B 0 | DYRK2 = 0

C[C@]1(O)C[C@@](N)(c2ccc(-c3nc4n(c3-c3ccccc3)COc3ccncc3-4)cc2)C1 [TAS-117 (hydrochloride)] (10 µM)
inactive: CDK7 = 0 | CDK9 = 0 | CHEK2 = 0 | CSF1R 0 | CSK 0 | CSNK1A1 = 0 | CSNK1D 0 | DDR1 = 0 | DYRK1B 0 | DYRK2 = 0

CCn1c2ccccc2c2cc(Nc3ccnc(NCCCN4CCOCC4)n3)ccc21 (2.5 µM)
inactive: CDK7 = 0 | CDK9 = 0 | CHEK2 = 0 | CSF1R 0 | CSK 0 | CSNK1A1 = 0 | CSNK1D 0 | DDR1 = 0 | DYRK1B 0 | DYRK2 = 0

CCC(=O)N1CC[C@H](Nc2ncnc3c2CN(c2cnc(OC)c(C(F)(F)F)c2)CC3)C1 [Leniolisib] (10 µM)
inactive: CDK7 = 0 | CDK9 = 0 | CHEK2 = 0 | CSF1R 0 | CSK 0 | CSNK1A1 = 0 | CSNK1D 0 | DDR1 = 0 | DYRK1B 0 | DYRK2 = 0

Structural class: those above containing an aryl methoxy group (three)
COC(=O)/C=C/c1ccc(O)c(OC)c1 [Ferulic acid methyl ester] (10 µM)
inactive: CDK7 = 0 | CDK9 = 0 | CHEK2 = 0 | CSF1R 0 | CSK 0 | CSNK1A1 = 0 | CSNK1D 0 | DDR1 = 0 | DYRK1B 0 | DYRK2 = 0

COc1ccc(S(=O)(=O)N(CCO)c2ccccc2CN(C)CC=Cc2ccc(Cl)cc2)cc1 (2.5 µM)
inactive: CDK7 = 0 | CDK9 = 0 | CHEK2 = 0 | CSF1R 0 | CSK 0 | CSNK1A1 = 0 | CSNK1D 0 | DDR1 = 0 | DYRK1B 0 | DYRK2 = 0

CCC(=O)N1CC[C@H](Nc2ncnc3c2CN(c2cnc(OC)c(C(F)(F)F)c2)CC3)C1 [Leniolisib] (10 µM)
inactive: CDK7 = 0 | CDK9 = 0 | CHEK2 = 0 | CSF1R 0 | CSK 0 | CSNK1A1 = 0 | CSNK1D 0 | DDR1 = 0 | DYRK1B 0 | DYRK2 = 0

(listing goes on)

Cc1occ2c1C(=O)c1c(O)ccc(O)c1C2 (2.5 µM)
inactive: CDK7 = 0 | CDK9 = 0 | CHEK2 = 0 | CSF1R 0 | CSK 0 | CSNK1A1 = 0 | CSNK1D 0 | DDR1 = 0 | DYRK1B 0 | DYRK2 = 0

Cc1c(Br)c(Br)c2c3c1nc(N1CCNCC1)n3CCC2 [SEL120-34A (monohydrochloride)] (2.5 µM)
inactive: CDK7 = 0 | CDK9 = 0 | CHEK2 = 0 | CSF1R 0 | CSK 0 | CSNK1A1 = 0 | CSNK1D 0 | DDR1 = 0 | DYRK1B 0 | DYRK2 = 0

COC[C@H]1Cn2cc(-c3nc(Nc4ccnn4C)ncc3C)nc2C(=O)N1Cc1ccc(F)c(F)c1 (10 µM)
inactive: CDK7 = 0 | CDK9 = 0 | CHEK2 = 0 | CSF1R 0 | CSK 0 | CSNK1A1 = 0 | CSNK1D 0 | DDR1 = 0 | DYRK1B 0 | DYRK2 = 0

CN(c1ccc(C(F)(F)F)cc1)S(=O)(=O)c1ccc(C(=O)Nc2nc(-c3ccccn3)cs2)cc1 (2.5 µM)
inactive: CDK7 = 0 | CDK9 = 0 | CHEK2 = 0 | CSF1R 0 | CSK 0 | CSNK1A1 = 0 | CSNK1D 0 | DDR1 = 0 | DYRK1B 0 | DYRK2 = 0

N#Cc1cn([C@@H]2O[C@H](CO)[C@@H](O)[C@H]2O)c2nc[nH]c(=O)c12 [Jaspamycin] (10 µM)
inactive: CDK7 = 0 | CDK9 = 0 | CHEK2 = 0 | CSF1R 0 | CSK 0 | CSNK1A1 = 0 | CSNK1D 0 | DDR1 = 0 | DYRK1B 0 | DYRK2 = 0

Cc1cc(Nc2ncc(Cl)c(Nc3ccccc3S(=O)(=O)C(C)C)n2)c(OC(C)C)cc1C1CCN(CC(=O)NCCNc2cccc3c2C(=O)N(C2CCC(=O)NC2=O)C3=O)CC1 (stereo not given) (10 µM)
inactive: CDK7 = 0 | CDK9 = 0 | CHEK2 = 0 | CSF1R 0 | CSK 0 | CSNK1A1 = 0 | CSNK1D 0 | DDR1 = 0 | DYRK1B 0 | DYRK2 = 0

O=c1ccc2cc(O)c(O)cc2o1 [Esculetin] (10 µM)
inactive: CDK7 = 0 | CDK9 = 0 | CHEK2 = 0 | CSF1R 0 | CSK 0 | CSNK1A1 = 0 | CSNK1D 0 | DDR1 = 0 | DYRK1B 0 | DYRK2 = 0

Cn1cc(-c2ccc3nnc(Sc4ccc5nn(C)cc5c4)n3n2)cn1 [c-Met inhibitor 1] (10 µM)
inactive: CDK7 = 0 | CDK9 = 0 | CHEK2 = 0 | CSF1R 0 | CSK 0 | CSNK1A1 = 0 | CSNK1D 0 | DDR1 = 0 | DYRK1B 0 | DYRK2 = 0

O=C1NC(=O)C(c2ccccc2[N+](=O)[O-])=C1Nc1ccc(O)c(Cl)c1 (10 µM)
inactive: CDK7 = 0 | CDK9 = 0 | CHEK2 = 0 | CSF1R 0 | CSK 0 | CSNK1A1 = 0 | CSNK1D 0 | DDR1 = 0 | DYRK1B 0 | DYRK2 = 0
